These results are taken from PubChem BioAssay AID1508600 (Functional Genomics Laboratory (NCATS/FGL), 2020).

Among all 53,000 sequences or so, about 3,700 (7%) were called active.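 How the source made its calls: active means gene knockdowns whose robust z-score for IL-1 alpha signal is at least 2 or at most -2, so actives lie on both sides; inactive means the rest.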 This is one part of the list.

The test is described as follows: Components of the Cytosolic LPS Sensing Pathway: Gene Identification via Genome-wide siRNA Screen.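 Further: robust z of the log signal after scaling to non-targeting control siRNA wells of the plate.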 The note with it: RAW264.7 macrophages, IL-1a HTRF, actives lie on both sides, screened at 100 nM (by protocol), cells primed 5 h with Pam3CSK4 first. The gist of the method: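 Read-out: IL-1a HTRF on supernatant, divided by plate negative-control median ×100, log-transformed and converted to robust z-score. Cells were RAW264.7 given 100 nM siRNA, Pam3CSK4-primed 5 hours, then LipidA-transfected 24 hour.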
Background: In TR-FRET formats the signal depends on donor and acceptor labels being close together.
CCUCUUGUAUGUGUGGUUUTT against Cdc25b: the z-score was inactive: 0.0873. Next, GGGCAAGAAAGGUGUUUUGTT against Prdx5: inactive: 0.432; GCCUGUGGAAACUUUCCUGTT against Faap100: inactive: 0.142.

GGGAUUUAAAGCCAACUUGTT against Sfpq: the z-score is inactive: 0.62. GGACUAAAUAGGUUUACCATT against Alx1: the z-score is inactive: 1.26. GGUUUUCAAACCCUUGUGGTT against Rnf44: the z-score was inactive: 1.44. Next, GGAAUUCAACUUCUUCAGUTT against Cxcr1: inactive: 0.489; GGUUUGAAAGGAGAAAGAGTT against Col4a6: inactive: 0.366.

With GGAGUUUCUCUGAUGAUGGTT against H2ac6, the z-score is inactive: 0.382. As for GGUGGAGAGUGAACAACAATT against Tpr, the z-score is inactive: -1.25.

In the case of CGGCUUCUCUCUUUACACATT against Fosb, the z-score was active: 2.51. Next, GGACAACGUGCUCAUUAGUTT against Zfp709: inactive: 0.0713; CCAAGCCUAAUAAAAUUCCTT against Lsr: inactive: 0.867. As for GGAUUUGGCUACAAAAACATT against Ppib, the z-score is inactive: 0.648. As to CCUUAACUAUGGAGGAGUUTT against Rims4, the z-score was inactive: -0.467.

Regarding GGAGAAAAAUCUAUUACCUTT against Ano4, the z-score was inactive: -1.94. For the sequence GCCGCAUAAUCAGAAAGGCTT against Pipox, the z-score was inactive: 0.748. For the sequence GGUAAGAGGAUCCAAGGUGTT against Fam131a, the z-score was inactive: 0.0909. In the case of GCAUUGGCAGACCCGAGUUTT against Pir, the z-score was inactive: 0.238. On to GGUACCUCUCAGAUUAAGUTT against Metap1, for which the z-score is inactive: 0.642.

Take CCAGAAUGUAAACUUGGUCTT against Trpv6: the z-score was inactive: 0.0508. In the case of GCUUGAACCUCAACACCAATT against Gpi1, the z-score is inactive: 0.552. Consider CCCGAGAUACAAAAUCAUUTT against Rcan3, for which the z-score was inactive: 0.641. As to GGAUUAGCUCUACAGAAGGTT against Olfr1031, the z-score is inactive: 1.67. Under CGAAAACCACAGGUUUCUGTT against Col5a1 stands inactive: 1.3; under GGAGAAGAUGAUUAAGACCTT against Anp32b, inactive: 0.51; under CGGGUAUCAUGUACUACCUTT against Slc6a9, inactive: 0.404. As for CCAACAUUCACACAUCUGATT against Syngr2, the z-score is inactive: -1.4. As for “CCUCAUUCAGGGAGUUCCATT against 2200002J24Rik”, the z-score was inactive: -1.52.

Turning to GGUGAUGAAAUUUAUUGAGTT against Gpn1, the z-score was inactive: -0.127. As for GGUUAAUCUUAACAACAUCTT against Tmod1, the z-score was inactive: 0.266. Under GUGGUGGUGGAAGACAUAATT against Hdhd3 stands inactive: 1.17. Next, GGAACAAAGGCUGAUCCAGTT against Chrnd: inactive: -1.28; GCUGUUAGGUUCAUUACCATT against Herc2: inactive: -0.117; GGAGACCAUCAUGUCUUUATT against Olfr378: inactive: 0.383. As to CCCACUUUUUUUUAGACUGTT against Slc52a3, the z-score is inactive: 0.278.

Regarding GGAAAGGACGACAUACAGGTT against Zfp12, the z-score is inactive: -0.213.

Regarding CCAUUAUCCUGGUGUGUAUTT against Olfr1362, the z-score was inactive: -0.0735.

As to “GGAGGCUAGACCUGUUUUUTT against 4932414J04Rik”, the z-score is inactive: -0.743. Turning to GAAACUUUGAGUCCUCCAGTT against Dop1b, the z-score was active: 3.22. GGUAGACCGUCCGAAAAGATT against D11Wsu47e: the z-score was inactive: -1.3. Under “GGCCAGUGUUACUGAGGAATT against 1700037C18Rik” stands inactive: -0.797; under CGUAGACUCCAAGCUCAAUTT against Ddx54, inactive: -1.31. On to CCGUCUAUUAAAUAUCUCGTT against Chmp4b, for which the z-score was inactive: 0.295. Regarding GCAUAGCUCAAAUCAAGGATT against Sik2, the z-score was inactive: 0.353.

As for GCUCUAGGCCAGAUGUUACTT against Slc13a3, the z-score was inactive: -0.476. Next, GGUGAAACUUGUUGAUUUUTT against Map4k4: inactive: 1.52; CGUCUCUGCUGAGAACAUGTT against Kcnk15: inactive: -1.21; “GCAUCAGAUUAGGCAGGAATT against 6030498E09Rik”: inactive: 1.36. As to GGCUGUGAGCAAUUCAUAGTT against Kdm2b, the z-score was inactive: -0.376. Under GGGACCAACAUCAAUAAUGTT against Itih4 stands inactive: 0.664. Next, CCGUUAAGCUCACUUGUCUTT against Notch4: inactive: 0.382; GCUACAUCGCUCUUAUAGCTT against Foxl1: inactive: 0.0236. As for GGCUCUGCUAUUUCUCCUGTT against Olfr17, the z-score is inactive: -1.16.

For the sequence GGCACUAAAACAAUCGUCATT against Cyp26a1, the z-score was inactive: -0.702. Turning to GGAUUUCAAAUCAAGAUGGTT against Serinc3, the z-score is inactive: -0.94.

Regarding GGCGGGUAGAUAUCAUGGGTT against Stn1, the z-score was inactive: 0.902. Under GGUUGUUCGAGGAAUAUCCTT against Xirp2 stands inactive: -0.623; under GCAGGCAUCAUCACGACAUTT against Gprc5c, inactive: 0.402; under GGGCGUGUCCUUGAAAGAATT against Frem2, inactive: -0.633.

Regarding GGAAAGAAGUGUCAGUUUUTT against Npvf, the z-score is inactive: 0.848. With GGCUGUGAGUAAACUUAUATT against Olfr301, the z-score was inactive: 0.852.

Turning to GCACCUAGCAGACAAAUAATT against Ppp1r3a, the z-score is inactive: 1.55. For the sequence CCUUGGUUUUCCCACUUCATT against Cstdc1, the z-score was inactive: -0.268. GGUGCUACGAGUUUUAGAATT against Tfap2c: the z-score was inactive: 0.647. In the case of GGUGAUGGGAAUAAAAACATT against Polg, the z-score was inactive: 0.441. Under GGACCCAUCGAAACCUCUATT against Pirb stands inactive: -0.0759; under CAUGAUAGCGAUAGCAAUCTT against Olfr507, inactive: 0.0127.
